These are yes or no findings as the source states them, for the method shown. Binding seen in cells or lysates may run through a third protein. Some results given as binding are weak or reduced against the parent protein; the word gives no strength.
How the values were obtained:
Assay in all cases: co-IP; GFP-TRAP of lysates of HEK293A cells expressing GFP-ATG8 constructs, blot for endogenous PCM1; TNTE buffer; cells in full medium, EBSS or EBSS + bafilomycin A1 for 2 hr
[1] = biological target: GFP-GABARAPL2 (human) (UniProt P60520)
[2] = biological target: GFP-LC3A (human) (UniProt Q9H492)
[3] = biological target: GFP-LC3C (human) (UniProt Q9BXW4)

Amino acid sequences for entries named in this document (tags omitted). A change or cut given only in a name is not applied to a line headed by its entry. Chains listed by the source or under a name are the forms on record and can include a tag or linker. Residues count along the entry.
UniProt P60520: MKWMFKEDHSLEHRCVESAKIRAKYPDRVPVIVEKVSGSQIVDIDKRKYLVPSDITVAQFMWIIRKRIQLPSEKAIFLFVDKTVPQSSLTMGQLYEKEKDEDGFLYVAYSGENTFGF
UniProt Q9BXW4, residues 1-126: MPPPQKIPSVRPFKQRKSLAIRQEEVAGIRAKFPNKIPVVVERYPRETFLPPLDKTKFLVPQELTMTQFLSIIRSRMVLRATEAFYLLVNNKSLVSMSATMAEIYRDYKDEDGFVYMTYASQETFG
PCM1 (endogenous) (Q15154-5, form named): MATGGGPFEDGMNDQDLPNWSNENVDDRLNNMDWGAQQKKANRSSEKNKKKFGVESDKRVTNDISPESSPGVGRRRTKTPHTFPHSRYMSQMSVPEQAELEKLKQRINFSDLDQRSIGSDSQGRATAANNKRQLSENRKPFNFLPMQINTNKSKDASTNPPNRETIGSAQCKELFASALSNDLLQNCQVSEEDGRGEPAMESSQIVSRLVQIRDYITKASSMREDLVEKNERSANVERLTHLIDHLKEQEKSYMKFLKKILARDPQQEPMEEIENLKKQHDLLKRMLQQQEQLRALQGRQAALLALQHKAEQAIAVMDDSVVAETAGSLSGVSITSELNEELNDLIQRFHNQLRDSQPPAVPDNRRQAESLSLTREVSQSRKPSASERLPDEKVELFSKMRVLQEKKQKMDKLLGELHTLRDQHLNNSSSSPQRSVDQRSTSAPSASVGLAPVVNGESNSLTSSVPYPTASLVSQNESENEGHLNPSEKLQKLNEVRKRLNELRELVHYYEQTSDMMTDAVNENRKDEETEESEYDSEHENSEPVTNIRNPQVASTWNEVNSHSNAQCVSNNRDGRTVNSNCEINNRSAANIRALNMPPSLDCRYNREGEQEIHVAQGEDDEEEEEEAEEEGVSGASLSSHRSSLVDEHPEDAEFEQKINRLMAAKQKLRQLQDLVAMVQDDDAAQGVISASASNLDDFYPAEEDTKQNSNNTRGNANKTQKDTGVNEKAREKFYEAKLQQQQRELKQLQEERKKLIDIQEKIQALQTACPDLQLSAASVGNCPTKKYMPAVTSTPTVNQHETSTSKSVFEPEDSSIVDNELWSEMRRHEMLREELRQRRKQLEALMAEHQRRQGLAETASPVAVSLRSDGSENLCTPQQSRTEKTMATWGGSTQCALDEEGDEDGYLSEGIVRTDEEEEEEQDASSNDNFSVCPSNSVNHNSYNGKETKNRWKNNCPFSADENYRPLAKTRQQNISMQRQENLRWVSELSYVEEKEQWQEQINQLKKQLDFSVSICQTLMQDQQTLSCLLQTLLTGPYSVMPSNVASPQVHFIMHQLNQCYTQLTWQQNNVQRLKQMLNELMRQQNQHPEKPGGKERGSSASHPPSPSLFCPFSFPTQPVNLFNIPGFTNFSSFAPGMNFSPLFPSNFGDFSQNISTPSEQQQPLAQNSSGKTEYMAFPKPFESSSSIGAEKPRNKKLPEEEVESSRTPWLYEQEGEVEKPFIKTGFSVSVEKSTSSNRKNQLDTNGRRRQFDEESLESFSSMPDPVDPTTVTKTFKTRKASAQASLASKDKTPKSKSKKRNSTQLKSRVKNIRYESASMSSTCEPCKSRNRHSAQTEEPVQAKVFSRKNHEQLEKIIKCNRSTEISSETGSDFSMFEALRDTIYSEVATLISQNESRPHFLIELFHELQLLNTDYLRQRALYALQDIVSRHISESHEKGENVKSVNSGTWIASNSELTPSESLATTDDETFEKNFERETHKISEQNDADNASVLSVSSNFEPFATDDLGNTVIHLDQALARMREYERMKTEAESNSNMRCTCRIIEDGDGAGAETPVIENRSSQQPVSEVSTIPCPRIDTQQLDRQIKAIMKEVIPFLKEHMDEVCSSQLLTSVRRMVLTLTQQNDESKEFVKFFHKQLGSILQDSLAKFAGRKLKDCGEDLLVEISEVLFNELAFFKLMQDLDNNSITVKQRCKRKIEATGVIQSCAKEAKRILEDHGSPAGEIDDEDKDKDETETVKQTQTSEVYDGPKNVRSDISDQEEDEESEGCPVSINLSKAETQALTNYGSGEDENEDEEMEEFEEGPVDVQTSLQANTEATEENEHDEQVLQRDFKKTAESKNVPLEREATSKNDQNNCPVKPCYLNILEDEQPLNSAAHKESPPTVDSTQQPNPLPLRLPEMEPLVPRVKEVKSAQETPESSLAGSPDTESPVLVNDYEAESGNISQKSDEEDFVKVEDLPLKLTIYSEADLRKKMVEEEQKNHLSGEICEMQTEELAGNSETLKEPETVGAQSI

binding [1]: binds
binding [2]: binds weakly
binding [3]: binds
Substance: PCM1 (endogenous) (from UniProt Q15154-5 1-2016)

From publication PMC5526835
